In PubChem BioAssay AID493027 (The Scripps Research Institute Molecular Screening Center, 2011):
Values joined by “and” are separate entries in the source; they are usually repeats but may differ in a detail not shown here. Equal entries are not always repeated. The campaign covered roughly 2,000 compounds. About 45 (2%) were called active.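 Rule for the calls: active = inhibition above the screen-wide mean inhibition plus 3 SD (cut at about 44% in these data); inactive = the rest.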 This is one part of the list.

Protein sequences, listed by entry. Tags and fused reporters are not part of them. Lines headed by an entry give the natural chain unless they say otherwise; changes in a name come on top.
UniProt O60240: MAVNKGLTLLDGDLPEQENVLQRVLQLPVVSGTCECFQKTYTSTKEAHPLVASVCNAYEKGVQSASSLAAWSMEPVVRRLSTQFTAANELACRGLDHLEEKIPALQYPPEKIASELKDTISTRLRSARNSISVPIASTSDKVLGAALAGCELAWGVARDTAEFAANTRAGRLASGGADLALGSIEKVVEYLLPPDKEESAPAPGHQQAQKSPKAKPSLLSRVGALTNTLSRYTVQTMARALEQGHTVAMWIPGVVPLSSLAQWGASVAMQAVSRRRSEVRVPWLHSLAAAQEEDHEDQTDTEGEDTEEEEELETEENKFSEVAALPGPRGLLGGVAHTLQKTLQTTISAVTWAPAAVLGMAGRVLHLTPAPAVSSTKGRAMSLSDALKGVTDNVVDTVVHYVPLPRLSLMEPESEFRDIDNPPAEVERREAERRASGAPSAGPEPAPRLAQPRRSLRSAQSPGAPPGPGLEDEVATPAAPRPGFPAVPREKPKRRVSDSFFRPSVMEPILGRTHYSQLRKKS
UniProt Q8WTS1: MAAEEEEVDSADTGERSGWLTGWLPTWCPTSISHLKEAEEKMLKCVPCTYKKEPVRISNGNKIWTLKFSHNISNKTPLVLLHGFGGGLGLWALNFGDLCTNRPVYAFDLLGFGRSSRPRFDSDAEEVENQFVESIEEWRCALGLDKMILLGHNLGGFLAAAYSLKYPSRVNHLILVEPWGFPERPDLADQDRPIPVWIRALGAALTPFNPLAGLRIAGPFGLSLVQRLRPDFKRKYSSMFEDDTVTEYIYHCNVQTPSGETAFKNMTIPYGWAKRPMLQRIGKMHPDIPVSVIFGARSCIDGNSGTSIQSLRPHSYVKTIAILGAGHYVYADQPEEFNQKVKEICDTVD

These compounds were tested against Perilipin-1 (Homo sapiens) + 1-acylglycerol-3-phosphate O-acyltransferase ABHD5 (Homo sapiens) (UniProt O60240+Q8WTS1) (assay: ABHD5-PLIN1 interaction inhibitors, pilot screen, cell lysate, split luciferase complementation, luminescence, NIH validation set (AID 493027;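 note: 0% = DMSO wells with the 100% control not disclosed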)). Settings: split G. princeps luciferase complementation, 4 h; at 7.9 µM, stronger effect = higher value.

inhibition, inactive:
C#CCN(C)CCCOc1ccc(Cl)cc1Cl -6.41%, Cc1c(NC(=O)c2cccs2)cccc1[N+](=O)[O-] -7.26%, Cc1nc2cc3ccccc3cc2c(=O)[nH]1 -3.56%, COc1cccc(CN2C(=O)N(C(C)C)C(N(O)C(=O)NC(C)C)C2(C)C)c1OC (stereo not given) -1.66%, COc1ccc(C2C3=C(CC(C)(C)CC3=O)N(C)C3=C2C(=O)CC(C)(C)C3)cc1 -1.89%, O=C(c1ccc(Cl)cc1)C1CCCN(Cc2ccc(Oc3ncccn3)cc2)C1 (stereo not given) 3.67%, O=C(OCCNC(=O)c1ccc2ccccc2n1)c1ccc(F)cc1 9.4%, CC12CC(c3ccccc3O1)C(C(=O)N1CCOCC1)C(=O)N2 (stereo not given) -10.7%, CCC(C)NCCOCCOc1ccc(Cl)cc1Br (stereo not given) -2.78%, COc1cc(NC(=S)NN2CCN(C)CC2)cc(OC)c1OC -10%, CC1=NN(C(=O)c2ccc(Br)cc2)C(O)(c2ccccc2)C1 (stereo not given) 6.64%, CN1[C@@H](CC(=O)c2ccccc2)CCC[C@H]1C[C@H](O)c1ccccc1 0.86%, c1ccc2[nH]c(-c3cscn3)nc2c1 -13.2%, COc1ccc2c(c1)[N+](C)(C)C(C)(C)C=C2C -6.86%, C#CCN1C(=O)C(O)(c2c(C)[nH]c3ccccc23)c2ccccc21 (stereo not given) -1.35%, COc1ccccc1C(O)c1nccn1C (stereo not given) -3.47%, CCOC(=O)C1=C[C@]2(CC)CCCN3CCc4c(n1c1ccccc41)[C@@H]32 -9.26%, COCCn1c(/C=C/c2ccccc2)nc2ccccc21 4.15%, CC1CNCCN1S(=O)(=O)c1cccc2cnccc12 (stereo not given) 7.22%, Cc1cccc(CN2CCN(C(c3ccccc3)c3ccc(Cl)cc3)CC2)c1 (stereo not given) -7.04%, COC1CCCCC1Nc1ccc(C)c(C)c1 (stereo not given) -2.83%, OC(C#CCN1CCCC1)(c1ccccc1)c1cccnc1 (stereo not given) 0.07%, CN=C1c2cc3cc(OC)ccc3n2CCN1C 3.44%, O=C(OCCN1CCCC1)C1(c2ccccc2)CCCC1 -8.49%, COC(=O)c1ccc(NC(=O)C23CCC(C)(C(=O)O2)C3(C)C)cc1 (stereo not given) -0.66%, CC(C)=CCCC(C)CN1CCC(N2CCC(C(=O)N3CCCC3)CC2)CC1 (stereo not given) -9.96%, C[C@]12CC[C@@H]3c4ccc(O)cc4CC[C@H]3[C@@H]1CCC2=O 7.19%, CC(NC(=O)c1ccc(OC2CCN(Cc3ccccn3)CC2)cc1)c1ccccc1 (stereo not given) -13.1%, COc1ccc(C)cc1S(=O)(=O)Nc1ccc(F)cc1 5.9%, CN1CC2CCCC3(C1)C(=O)NC1(CCCCC1)N=C23 (stereo not given) -6.33%, COc1ccc(-c2cc(C(=O)N3CCOCC3)c3cc(C)ccc3n2)cc1 -2.54%, O=C(/C=C/c1ccc2c(c1)OCO2)NCc1ccc(F)cc1 -2.57%, Cc1csc(CCc2nc(C)cs2)n1 -3.21%, O=C(Oc1ccc2c3c(c(=O)oc2c1)CCCC3)c1ccco1 7.31%, COc1ccc(-c2c(C)c3ccc(OCC(C)=O)cc3oc2=O)cc1 6.28%, C(=C\c1ccc2ccccc2n1)/c1ccccc1 -4.7%, c1cc(-c2ccncc2)ccn1 -6.1%, CCCCOc1cc(C(=O)NCCN(CC)CC)c2ccccc2n1 -13.4% and -7.3%, COc1cccc(CC2CC(=O)N(c3ccc4c(C)cc(=O)oc4c3)C2=O)c1 (stereo not given) -1.78%, CCS(=O)(=O)CCn1c([N+](=O)[O-])cnc1C -9.61%, O=C1CCc2cc(OCCCCc3nnnn3C3CCCCC3)ccc2N1 -0.47%, Cc1ccc(C(CC(=O)NCc2ccco2)c2ccc(OC(C)C)cc2)cc1 (stereo not given) 26.4%, Cc1ccccc1NC(=O)C1c2ccccc2Oc2ccccc21 -6.75%, CCOC(=O)c1c(C)oc2c1C(=O)c1ccccc1C2=O -9.93%, O=C(CN1CC[n+]2c(-c3cccs3)csc21)c1ccc(Br)cc1 -1.99%, Cc1ccc2c(c1)C(C)(C)[C@]1(C)NC(=O)CCN21 1.05%, CC(=O)OC1c2c(ccc3ccc(=O)oc23)OC(C)(C)C1OC(=O)CC(C)C (stereo not given) 2.41%, O=C(CCC(=O)c1cccs1)c1cccs1 -7.75%, O=C1c2ccccc2C2(c3ccccc3)NCCN12 (stereo not given) 0.96%, CC(=O)N1c2ccccc2C(C)=CC1(C)C -3.84%
